Laboratory results as given in publication PMC10269713.
Tags and fusion partners may be left off the protein sequences shown.

Molecular target: T1, His6-Fis (UniProt P0A6R4)
T1 sequence (looked up, limits assumed): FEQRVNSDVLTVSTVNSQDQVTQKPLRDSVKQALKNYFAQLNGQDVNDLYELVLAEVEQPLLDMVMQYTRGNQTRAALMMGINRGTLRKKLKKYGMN
Assay: EMSA
Conditions: shift at 0.25 pmol Fis with 0.3 pmol probe in 10 uL, 20 mM Tris pH 7.5, 50 mM KCl, 1 mM DTT, 10% glycerol, 20 min at room temperature, 5% native acrylamide gel in TBE at 4 C, recombinant protein, protein details: N-terminal His6 (pQE80L), label: none (post-stained, Novel Green Plus), probe letters rebuilt from the primers and the genome

GCGGCGGCCGCTCACTTGATTGCGAGTCGCGAGTTTTCATTGTTATCCCTCTGAAGTTCGTTTTTTACCATTTAGCCATAGTAAAAACATGAATTGTTTGATTTCGCGCATATTCGCTCATAATTCGAAAGTGAAACGTGATTTCATGCGTCATTCTGAACATTTCAACCATCGTATTTAATAATGTGTGCGGTAATTCACATTTAATTTATGAATGTTTTCTTAACATCGCGGCAACTCAAGAAACGGCAGGTTCTCCCACGGAATCAGGCTGTTAATCATAAATAAGACCACGGGCCACGGAGGCTTTCAAAGCTTCGC (double strand) [glpT upstream region probe]
binding result: binds
